Data published in publication PMC11405016.
No constants are given. Whether binding was seen depends on the method and setting. In cells and extracts the contact can be indirect. Some entries that bind do so weakly or less than the wild type. Tags and fused reporters may be left off the sequences shown.

Biological target: T1, Prominin 1 (Prom1), human S1 isoform, C-terminally Strep-tagged (Prom1-Strep), wild type (human) (UniProt O43490)
T1 sequence: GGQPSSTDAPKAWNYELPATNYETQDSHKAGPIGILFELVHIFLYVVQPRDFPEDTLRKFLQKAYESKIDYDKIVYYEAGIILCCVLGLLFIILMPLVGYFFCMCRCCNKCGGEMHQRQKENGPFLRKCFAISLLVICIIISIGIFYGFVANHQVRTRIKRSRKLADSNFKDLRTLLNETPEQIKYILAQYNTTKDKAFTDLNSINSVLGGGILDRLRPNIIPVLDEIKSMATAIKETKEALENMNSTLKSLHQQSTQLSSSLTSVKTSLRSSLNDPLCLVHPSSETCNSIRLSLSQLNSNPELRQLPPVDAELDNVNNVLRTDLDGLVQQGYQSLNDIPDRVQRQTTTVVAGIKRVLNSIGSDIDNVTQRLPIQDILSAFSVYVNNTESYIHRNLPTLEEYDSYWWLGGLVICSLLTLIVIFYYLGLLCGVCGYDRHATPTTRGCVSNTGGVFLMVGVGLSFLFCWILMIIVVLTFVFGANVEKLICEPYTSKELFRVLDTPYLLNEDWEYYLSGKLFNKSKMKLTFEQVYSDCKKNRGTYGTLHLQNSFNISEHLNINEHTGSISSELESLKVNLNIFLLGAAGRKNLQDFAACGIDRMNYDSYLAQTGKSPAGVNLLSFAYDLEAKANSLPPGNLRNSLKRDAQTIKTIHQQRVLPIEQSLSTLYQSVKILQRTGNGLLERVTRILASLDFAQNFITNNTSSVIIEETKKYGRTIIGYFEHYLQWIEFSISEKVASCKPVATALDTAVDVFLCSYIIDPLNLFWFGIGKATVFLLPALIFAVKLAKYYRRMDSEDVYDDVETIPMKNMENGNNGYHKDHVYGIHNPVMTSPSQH
Assay: co-IP; EVs from co-transfected Expi293 cells, purified and solubilised with 1% DDM (25 mM HEPES-NaOH pH 7.8, 150 mM NaCl, 5 mM CaCl2); Prom1-Strep captured on StrepTactinXT 4Flow resin, 1 hr at 4°C; co-purified mNeonGreen or mScarlet fluorescence on the beads measured by montaged epifluorescence imaging, normalised to mTagBFP2-Strep on the resin

B1: Protocadherin-21 (Pcdh21), human isoform 1, mNeonGreen-tagged (protein, UniProt Q96JP9-1 20-859)
chain: QANFAPHFFDNGVGSTNGNMALFSLPEDTPVGSHVYTLNGTDPEGDPISYHISFDPSTRSVFSVDPTFGNITLVEELDREREDEIEAIISISDGLNLVAEKVVILVTDANDEAPRFIQEPYVALVPEDIPAGSIIFKVHAVDRDTGSGGSVTYFLQNLHSPFAVDRHSGVLRLQAGATLDYERSRTHYITVVAKDGGGRLHGADVVFSATTTVTVNVEDVQDMAPVFVGTPYYGYVYEDTLPGSEVLKVVAMDGDRGKPNRILYSLVNGNDGAFEINETSGAISITQSPAQLQREVYELHVQVTEMSPAGSPAAQATVPVTIRIVDLNNHPPTFYGESGPQNRFELSMNEHPPQGEILRGLKITVNDSDQGANAKFNLQLVGPRGIFRVVPQTVLNEAQVTIIVENSAAIDFEKSKVLTFKLLAVEVNTPEKFSSTADVVIQLLDTNDNVPKFDSLYYVARIPENAPGGSSVVAVTAVDPDTGPWGEVKYSTYGTGADLFLIHPSTGLIYTQPWASLDAEATARYNFYVKAEDMEGKYSVAEVFITLLDVNDHPPQFGKSVQKKTMVLGTPVKIEAIDEDAEEPNNLVDYSITHAEPANVFDINSHTGEIWLKNSIRSLDALHNITPGRDCLWSLEVQAKDRGSPSFSTTALLKIDITDAETLSRSPMAAFLIQTKDNPMKAVGVLAGTMATVVAITVLISTATFWRNKKSNKVLPMRRVLRKRPSPAPRTIRIEWLKSKSTKAATKFMLKEKPPNENCNNNSPESSLLPRAPALPPPPSVAPSTGAAQWTVPTVSGSLTPQPTQPPPKPKTMGSPVQSTLISELKQKFEKKSVHNKAYF
binding: binds

B2: Prominin 1 (Prom1), human S1 isoform, C-terminally Strep-tagged (Prom1-Strep), wild type (protein, UniProt O43490-2 20-856)
chain: GGQPSSTDAPKAWNYELPATNYETQDSHKAGPIGILFELVHIFLYVVQPRDFPEDTLRKFLQKAYESKIDYDKIVYYEAGIILCCVLGLLFIILMPLVGYFFCMCRCCNKCGGEMHQRQKENGPFLRKCFAISLLVICIIISIGIFYGFVANHQVRTRIKRSRKLADSNFKDLRTLLNETPEQIKYILAQYNTTKDKAFTDLNSINSVLGGGILDRLRPNIIPVLDEIKSMATAIKETKEALENMNSTLKSLHQQSTQLSSSLTSVKTSLRSSLNDPLCLVHPSSETCNSIRLSLSQLNSNPELRQLPPVDAELDNVNNVLRTDLDGLVQQGYQSLNDIPDRVQRQTTTVVAGIKRVLNSIGSDIDNVTQRLPIQDILSAFSVYVNNTESYIHRNLPTLEEYDSYWWLGGLVICSLLTLIVIFYYLGLLCGVCGYDRHATPTTRGCVSNTGGVFLMVGVGLSFLFCWILMIIVVLTFVFGANVEKLICEPYTSKELFRVLDTPYLLNEDWEYYLSGKLFNKSKMKLTFEQVYSDCKKNRGTYGTLHLQNSFNISEHLNINEHTGSISSELESLKVNLNIFLLGAAGRKNLQDFAACGIDRMNYDSYLAQTGKSPAGVNLLSFAYDLEAKANSLPPGNLRNSLKRDAQTIKTIHQQRVLPIEQSLSTLYQSVKILQRTGNGLLERVTRILASLDFAQNFITNNTSSVIIEETKKYGRTIIGYFEHYLQWIEFSISEKVASCKPVATALDTAVDVFLCSYIIDPLNLFWFGIGKATVFLLPALIFAVKLAKYYRRMDSEDVYDDVETIPMKNMENGNNGYHKDHVYGIHNPVMTSPSQH
binding: binds
